Data published in patent publication US8288378B2, “Phosphoinositide modulation for the treatment of neurodegenerative diseases” (The Trustees of Columbia University in the City of New York, priority 2006, dated 2012).
At least one structure is not confirmed: it was looked up by name or label, or the drawing left a doubt.

How the values were obtained:
[1] = cited from earlier work
[2] = tested on: N2a cells stably expressing human APP with the Swedish mutation; assay: Aβ42/Aβ40 production in N2a cells stably expressing human APP with the Swedish mutation; format: cell-based; details: 6 hours treatment
Description: N2a cells stably expressing human APP with the Swedish mutation were grown in DMEM-supplemented with 50% Opti-MEM, 10% FBS, penicillin, streptomycin, and G418. Cells were grown to 80-90% confluence and treated for 6 hours with the drugs as indicated in 900 μl media. The conditioned media was harvested and centrifuged for 15 minutes at 14,000 rpm in a table top Eppendorf centrifuge 5417R. The adherent cells were washed two times with ice cold PBS and lysed in 100 μl super IP buffer (10 mM Tris Cl, pH, 7.4, 150 mM NaCl, 2 mM EDTA, 1% Triton X-100, 0.25% NP-40, protease inhibitors). Cell lysates were scraped and incubated for 15 minutes on ice before centrifugation at 14,000 rpm in a table-top Eppendorf centrifuge 5417R. Cleared conditioned media and lysates were stored at −80° C. until use. Aβ 42 and Aβ40 were quantified with the commercially available kit from Biosource as indicated in the protocol. Protein concentration of the cell lysate was determined using the BCA assay from Pierce.
KU-55933 is a small molecule inhibitor of ATM kinase as well as PI3K family members (FIG. 22). […] Aβ 42 and Aβ40 were quantified with the commercially available kit from Biosource as indicated in the protocol. Protein concentration of the cell lysate was determined using the BCA assay from Pierce.

PC12 cells = assay: PIP2 sensor GFP-PHPLCδ1 plasma membrane/cytosol localization; format: cell-based; details: oAβ42 60 min; inhibitor 0.5 μM
Description: Confocal microscopy. […] Cells have been analyzed after being treated for different time lengths: 0, 10 minutes, 30 minutes and 120 minutes. Cells were washed in phosphate buffer and fixed with 4 percent paraformaldehyde. Confocal z-stack images (0.5 μm) of PC12 cells were obtained using Nikon EZ-C1.2.30 confocal microscope, (×100) oil immersion objective. Quantification of GFP intensity was calculated using the ImageJ software: for each cell in a given image, a line intensity profile across the cell was obtained. The relative decrease in plasma membrane localization was calculated as the ratio between the plasma membrane fluorescence intensity and the average cytosolic fluorescence intensity. The average of the ratio was reported in the graph.
PC12 cells were cultured in RPMI media supplemented with 1 mM glutamine, 5% FBS, 10% horse serum and penicillin, streptomycin. The day before transfection, PC12 cells were split 50% and plated on poly-D-lysine coated coverslips. Cells were transfected with Lipofectamine 2000 as per the manufacturer's protocol with GFP-PHPLCδ1. […] Images were collected using a con-focal microscope and the plot profile was analyzed with ImageJ 1.37v. The ratio of the fluorescence profiles of the plasma membrane and the cytosol were calculated and deemed to represent translocation of the PIP2 probe GFP-PH-PLCδ1 (72).

COC[C@H]1OC(=O)c2coc3c2[C@@]1(C)C1=C(C3=O)[C@@H]2CCC(=O)[C@@]2(C)C[C@H]1OC(C)=O [wortmannin]
release of sAPPα and Aβ [1]: decreased the release of sAPPα and Aβ

O=c1cc(N2CCOCC2)oc2c(-c3ccccc3)cccc12 [LY-294002]
production of Aβ42 [2]: able to inhibit the production of Aβ42

CCCCCCCCCCCCCCCCCCOCC(COP(=O)([O-])OCC[N+](C)(C)C)OC (stereo not drawn) [edelfosine]
PIP2 levels on oAβ42 treatment in presence of PLC inhibitor (PC12 cells): PIP2 levels remained unaffected by oAβ42
